The values below come from publication PMC3218940.

Chains of the proteins cited; added tags and fusions are not shown.
UniProt P08047: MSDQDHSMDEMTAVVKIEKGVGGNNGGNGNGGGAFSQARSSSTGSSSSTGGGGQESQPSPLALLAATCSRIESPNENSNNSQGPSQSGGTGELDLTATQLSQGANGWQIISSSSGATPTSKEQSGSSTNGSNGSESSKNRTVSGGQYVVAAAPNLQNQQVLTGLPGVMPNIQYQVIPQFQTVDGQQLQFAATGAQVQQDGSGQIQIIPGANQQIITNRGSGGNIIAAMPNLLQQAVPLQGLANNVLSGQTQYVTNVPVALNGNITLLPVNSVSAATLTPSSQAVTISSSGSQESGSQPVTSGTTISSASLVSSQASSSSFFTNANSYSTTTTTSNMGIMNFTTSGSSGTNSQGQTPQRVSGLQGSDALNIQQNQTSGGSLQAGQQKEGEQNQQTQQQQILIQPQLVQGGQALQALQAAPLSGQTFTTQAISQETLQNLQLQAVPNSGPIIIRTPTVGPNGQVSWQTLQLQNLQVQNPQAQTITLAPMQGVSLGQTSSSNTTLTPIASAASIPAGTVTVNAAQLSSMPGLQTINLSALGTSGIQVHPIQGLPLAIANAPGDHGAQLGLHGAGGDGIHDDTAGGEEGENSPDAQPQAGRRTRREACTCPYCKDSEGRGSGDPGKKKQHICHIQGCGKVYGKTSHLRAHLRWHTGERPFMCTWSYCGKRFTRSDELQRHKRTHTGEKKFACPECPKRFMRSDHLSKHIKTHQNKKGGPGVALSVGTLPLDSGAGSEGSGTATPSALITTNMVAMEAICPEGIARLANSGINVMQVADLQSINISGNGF

Results are given in words; binding and its absence hold for the method and conditions named. In cells and extracts the contact can be indirect. Some binding calls cover weakened binding; strength is not graded here.

The target in test [1] is topoisomerase IIα (human (endogenous in HME cells)) (UniProt P11388). The test can be described thus: co-IP; 1 mg chromatin of HME or induced Gem9 cells (72 hours), also of G2/M, M or M/G1 cells; immunoprecipitated with anti-geminin, anti-Sp1 or anti-TopoIIα antibody, then immunoblotted.
Test [2] deals with T1, geminin (human (endogenous in HME cells)) (UniProt O75496).
T1 sequence: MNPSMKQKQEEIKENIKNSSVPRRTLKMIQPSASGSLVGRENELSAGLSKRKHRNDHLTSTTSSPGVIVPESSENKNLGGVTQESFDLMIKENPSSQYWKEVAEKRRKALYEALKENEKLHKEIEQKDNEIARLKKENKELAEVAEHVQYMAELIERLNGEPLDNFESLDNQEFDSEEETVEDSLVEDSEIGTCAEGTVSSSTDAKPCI
The description is as above.

In test [3] the target is Sp1 (human (endogenous in HME cells)) (UniProt P08047). The description is as above.
Test [4] deals with T2, topoisomerase IIα (human (endogenous in HME cells)), P11388.
T2 chain: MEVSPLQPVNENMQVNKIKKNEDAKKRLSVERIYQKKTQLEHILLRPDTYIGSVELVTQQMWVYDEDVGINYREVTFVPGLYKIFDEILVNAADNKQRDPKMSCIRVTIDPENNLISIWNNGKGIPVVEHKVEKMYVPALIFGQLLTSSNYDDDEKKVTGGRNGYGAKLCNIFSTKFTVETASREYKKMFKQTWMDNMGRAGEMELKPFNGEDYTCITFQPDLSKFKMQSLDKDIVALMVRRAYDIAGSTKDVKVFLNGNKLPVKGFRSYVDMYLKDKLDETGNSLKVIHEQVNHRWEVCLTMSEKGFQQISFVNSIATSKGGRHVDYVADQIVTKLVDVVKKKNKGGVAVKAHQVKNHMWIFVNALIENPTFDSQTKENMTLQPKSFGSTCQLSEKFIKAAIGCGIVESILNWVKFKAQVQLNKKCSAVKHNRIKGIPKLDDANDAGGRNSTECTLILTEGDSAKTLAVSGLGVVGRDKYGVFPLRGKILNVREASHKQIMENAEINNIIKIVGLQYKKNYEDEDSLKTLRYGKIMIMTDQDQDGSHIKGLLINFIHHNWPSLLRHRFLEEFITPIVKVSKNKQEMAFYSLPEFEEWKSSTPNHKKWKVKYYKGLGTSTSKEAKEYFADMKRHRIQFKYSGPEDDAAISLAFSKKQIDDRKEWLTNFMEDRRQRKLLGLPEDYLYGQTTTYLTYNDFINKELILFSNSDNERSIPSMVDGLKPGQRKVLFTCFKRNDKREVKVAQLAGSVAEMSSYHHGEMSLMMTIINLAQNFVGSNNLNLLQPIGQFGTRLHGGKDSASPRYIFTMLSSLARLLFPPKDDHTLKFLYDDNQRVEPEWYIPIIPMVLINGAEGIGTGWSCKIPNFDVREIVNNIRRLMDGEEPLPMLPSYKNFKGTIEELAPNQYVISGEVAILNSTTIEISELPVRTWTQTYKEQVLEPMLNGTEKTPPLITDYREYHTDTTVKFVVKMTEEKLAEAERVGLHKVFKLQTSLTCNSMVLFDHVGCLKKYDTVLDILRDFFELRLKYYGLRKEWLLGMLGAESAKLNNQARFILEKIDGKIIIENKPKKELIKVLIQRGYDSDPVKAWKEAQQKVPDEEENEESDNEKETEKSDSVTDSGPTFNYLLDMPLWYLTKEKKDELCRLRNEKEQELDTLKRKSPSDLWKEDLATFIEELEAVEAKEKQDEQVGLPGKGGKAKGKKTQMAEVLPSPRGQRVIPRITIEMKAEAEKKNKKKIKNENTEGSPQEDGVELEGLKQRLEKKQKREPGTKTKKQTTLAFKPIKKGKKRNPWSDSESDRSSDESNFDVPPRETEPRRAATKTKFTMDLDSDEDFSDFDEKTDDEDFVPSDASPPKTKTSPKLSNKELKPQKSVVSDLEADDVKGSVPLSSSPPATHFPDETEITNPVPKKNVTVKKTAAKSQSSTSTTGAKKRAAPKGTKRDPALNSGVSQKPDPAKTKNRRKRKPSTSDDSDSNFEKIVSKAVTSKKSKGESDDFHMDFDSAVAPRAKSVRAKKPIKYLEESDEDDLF
The test can be described thus: co-IP; total cellular proteins of sonicated HME cells synchronised in G0/G1, S, G2/M and M/G1; immunoprecipitated with anti-Cdc7, anti-geminin, anti-Sp1 (negative control) or anti-TopoIIα antibodies, then immunoblotted. To be noted: remark: other sources report otherwise. A general note: A western blot detects proteins with antibodies after separation by electrophoresis.

In test [5] the target is cell division cycle 7 (human (endogenous in HME cells)) (UniProt O00311). The test is described as above.
In test [6] the target is topoisomerase IIα (human (endogenous in HME cells)) (UniProt P11388). The description is as above.
Test [7] deals with Sp1 (human (endogenous in HME cells)) (UniProt P08047). Described as above.

B1: sentrin-specific protease SENP2 (enzyme, UniProt Q9HC62 1-589)
chain: MYRWLVRILGTIFRFCDRSVPPARALLKRRRSDSTLFSTVDTDEIPAKRPRLDCFIHQVKNSLYNAASLFGFPFQLTTKPMVTSACNGTRNVAPSGEVFSNSSSCELTGSGSWNNMLKLGNKSPNGISDYPKIRVTVTRDQPRRVLPSFGFTLNSEGCNRRPGGRRHSKGNPESSLMWKPQEQAVTEMISEESGKGLRRPHCTVEEGVQKEEREKYRKLLERLKESGHGNSVCPVTSNYHSSQRSQMDTLKTKGWGEEQNHGVKTTQFVPKQYRLVETRGPLCSLRSEKRCSKGKITDTETMVGIRFENESRRGYQLEPDLSEEVSARLRLGSGSNGLLRRKVSIIETKEKNCSGKERDRRTDDLLELTEDMEKEISNALGHGPQDEILSSAFKLRITRGDIQTLKNYHWLNDEVINFYMNLLVERNKKQGYPALHVFSTFFYPKLKSGGYQAVKRWTKGVNLFEQEIILVPIHRKVHWSLVVIDLRKKCLKYLDSMGQKGHRICEILLQYLQDESKTKRNSDLNLLEWTHHSMKPHEIPQQLNGSDCGMFTCKYADYISRDKPITFTQHQMPLFRKKMVWEILHQQLL
As to B1, the binding entry is given as “no binding” in test [1], “binds” in test [2] and “no binding” in test [3].

B2: cell division cycle 7, O00311 1-574 (enzyme)
chain: MEASLGIQMDEPMAFSPQRDRFQAEGSLKKNEQNFKLAGVKKDIEKLYEAVPQLSNVFKIEDKIGEGTFSSVYLATAQLQVGPEEKIALKHLIPTSHPIRIAAELQCLTVAGGQDNVMGVKYCFRKNDHVVIAMPYLEHESFLDILNSLSFQEVREYMLNLFKALKRIHQFGIVHRDVKPSNFLYNRRLKKYALVDFGLAQGTHDTKIELLKFVQSEAQQERCSQNKSHIITGNKIPLSGPVPKELDQQSTTKASVKRPYTNAQIQIKQGKDGKEGSVGLSVQRSVFGERNFNIHSSISHESPAVKLMKQSKTVDVLSRKLATKKKAISTKVMNSAVMRKTASSCPASLTCDCYATDKVCSICLSRRQQVAPRAGTPGFRAPEVLTKCPNQTTAIDMWSAGVIFLSLLSGRYPFYKASDDLTALAQIMTIRGSRETIQAAKTFGKSILCSKEVPAQDLRKLCERLRGMDSSTPKLTSDIQGHASHQPAISEKTDHKASCLVQTPPGQYSGNSFKKGDSNSCEHCFDEYNTNLEGWNEVPDEAYDLLDKLLDLNPASRITAEEALLHPFFKDMSL
For B2, the binding entry in test [4] is recorded as “no binding”.

B3: geminin (protein, UniProt O75496 1-209)
chain: MNPSMKQKQEEIKENIKNSSVPRRTLKMIQPSASGSLVGRENELSAGLSKRKHRNDHLTSTTSSPGVIVPESSENKNLGGVTQESFDLMIKENPSSQYWKEVAEKRRKALYEALKENEKLHKEIEQKDNEIARLKKENKELAEVAEHVQYMAELIERLNGEPLDNFESLDNQEFDSEEETVEDSLVEDSEIGTCAEGTVSSSTDAKPCI
For the molecule B3, the figures for the binding entry in test [5], in test [6] and in test [7] were “no binding”, “binds” and “no binding”, respectively.
